Results taken from PubChem BioAssay AID602313 (National Center for Advancing Translational Sciences (NCATS), 2012).
Hit rate of the full screen: of about 390,000 compounds, about 760 (0.19%) were called active. Inconclusive means that the source gave no clear call. Such entries were picked first, then a sample of the others. The call rests on the fitted dose curve; in most records, active means well fitted inhibition curve with a large enough effect; inconclusive means small, poorly fitted or top-dose-only effect; inactive means flat fitted curve, though single readings scatter. Where the call is inconclusive, the potency comes from a doubtful curve fit.

experiment: qHTS for Inhibitors of Vif-A3F Interactions: qHTS; conditions: HeLa A3F-eYFP + Vif (tagged APOBEC3F with the HIV-1 protein that degrades it), YFP fluorescence increase; series mostly up to 46.1 µM; further: nearly all actives have a fitted effect of over 65% in size
Text: The recent discovery and characterization of host restriction factors, which provide a potent defense to invading retroviruses, has provided new targets for antiviral drug development. APOBEC3G (A3G) and APOBEC3F (A3F) are potent cytidine deaminases that block HIV-1 replication; HIV-1 expresses the Vif protein, which counteracts A3G and A3F by binding to them and inducing their proteasomal degradation. The Vif-A3G and Vif-A3F interactions provide two potential targets for development of small molecules which can interfere with the ability of Vif to degrade A3G or A3F. […] To identify inhibitors that can interfere with Vif mediated degradation of A3G and A3F, we have developed Hela cell lines that stably express A3G or A3F tagged with eYFP at the C-terminal end (A3G-eYFP or A3F-eYFP, respectively) and Vif. In the absence of an inhibitor, Vif induces degradation of A3G-eYFP and A3F-eYFP, and the cells are not fluorescent. In the presence of an inhibitor, it is expected that Vif will be unable to degrade A3G-eYFP and/or A3F-eYFP, resulting in an increase in yellow fluorescence. In this assays Vif A3F was screened against the Molecular Library Small Molecule Repository (MLSMR). NIH Chemical Genomics Center [NCGC] NIH Molecular Libraries Probe Centers Network [MLPCN] MLPCN Grant: MH093245 Assay Submitter (PI): Vinay Pathak, National Cancer Institute
5 uL of 700 cells/well of A3F-YFP cells are dispensed into black, clear bottom plates. The plates are incubated overnight at 37 deg C. 23 nL of compounds are added by pintool. The plates are incubated overnight at 37 deg C and then read on the TTP Acumen (Ex 488/ Em 500-530).
Potency means the concentration at half of the fitted maximal effect.

Row | Compound | Potency
1 | CCN(CC)CCN(C(=O)c1ccc2c(c1)OCCO2)c1nc2cc(C)cc(C)c2s1 | inconclusive: 35.5 µM [inhibitor, single point]
2 | COc1cc2cc(-c3ccc(OC)c(OC)c3C)nc(N)c2cc1OC | inconclusive: 35.5 µM [inhibitor, single point]
3 | Cc1ccc(-c2nnc(N3CCC(C)CC3)c3ccccc23)cc1C | inconclusive: 28.2 µM [inhibitor, single point]
4 | CCSc1nnc(NC(=O)NC(CC)(C(F)(F)F)C(F)(F)F)s1 | inactive
5 | CCn1c(=N)c(C(=O)NC2CCCCC2)cc2c(=O)n3cc(C)ccc3nc21 | inconclusive: 12.6 µM [inhibitor, single point]
6 | O=C(Nc1ccc2oc(-c3ccncc3)nc2c1)c1ccc2c(c1)OCCO2 | inconclusive: 11.2 µM [inhibitor, partial curve, poor fit]
7 | CCn1c(C(=O)N2CCCC(C(=O)N3CCN(c4cc(C)ccc4C)CC3)C2)cc2sccc21 (stereo unspecified) | inconclusive: 3.55 µM [inhibitor, partial curve, poor fit]
8 | COc1ccc(N/C=C/c2nc(SC)nnc2C)cc1 | active: 22.4 µM
9 | COc1cc([N+](=O)[O-])cc(/C=N/NC(=O)C(O)(c2ccccc2)c2ccccc2)c1O | inconclusive: 7.94 µM [inhibitor, partial curve, poor fit]
10 | Cc1ccc(-c2c(C)sc(NC(=O)C3C4CCC(O4)C3C(=O)O)c2C(=O)OC(C)C)cc1 (stereo unspecified) | inactive
11 | COc1ccc(NC(=S)NC(=NS(=O)(=O)c2ccc(Cl)cc2)c2ccccc2)cc1 | inconclusive: 22.4 µM [inhibitor, single point]
12 | O=C1c2cccc3cc([N+](=O)[O-])cc(c23)C(=O)N1/N=C/c1ccc(O)cc1O | inconclusive: 35.5 µM [inhibitor, single point]
13 | O=C(c1cccc(C(F)(F)F)c1)C1CCCN(C(=O)CN2CCCC2=O)C1 (stereo unspecified) | inconclusive: 5.62 µM [inhibitor, single point]
14 | Cc1ccc[n+](-c2nc3ccccc3nc2C(=C=[N-])C#N)c1 | inconclusive: 35.5 µM [inhibitor, single point]
15 | Cc1nc([N+](=O)[O-])cn1CC(=O)Nc1ccc([N+](=O)[O-])cc1 | inactive
16 | O=C(c1ccccc1)c1cc2cc(Cl)ccc2[nH]1 | inconclusive: 35.5 µM [inhibitor, single point]
17 | CCOc1ccccc1NC(=O)CSc1nnc2ccc(-c3cccnc3)nn12 | inconclusive: 15.8 µM [inhibitor, single point]
18 | COc1cc2c(cc1[N+](=O)[O-])-c1ccccc1C2 | inconclusive: 28.2 µM [inhibitor, single point]
19 | CNC(=O)c1c(NC(=O)c2ccc(S(=O)(=O)N3CCCc4ccccc43)cc2)sc2c1CCN(C)C2 | inconclusive: 15.8 µM [inhibitor, partial curve, poor fit]
20 | COCc1ccc(CN2CCCC(CCC(=O)NCc3ccc(C)o3)C2)o1 (stereo unspecified) | inactive
21 | S=C(CSc1ccccc1)Nc1cccc2ccccc12 | inconclusive: 5.62 µM [inhibitor, single point]
22 | CCOC(=O)c1c(NC(=O)C2COc3ccccc3O2)sc2c1CCN(Cc1ccccc1)C2 (stereo unspecified) | inactive

Row | Compound | Potency
23 | COCCNc1nc(-n2nc(C)cc2C)nc2sc3c(c12)CCCC3 | inconclusive: 3.16 µM [inhibitor, partial curve, poor fit]
24 | N#CC1=C(N)C(C#N)(C#N)[C@H](c2cccnc2)[C@H]2CN(C(=O)OCc3ccccc3)CC=C12 | inconclusive: 17.8 µM [inhibitor, single point]
25 | CCOc1ccc(NC(=O)c2cc(=O)c3ccc(C)c(C)c3o2)cc1 | inconclusive: 15.8 µM [inhibitor, single point]
26 | Cc1ccc(N2CC(O)Cn3c2nc2c3c(=O)[nH]c(=O)n2C)cc1 (stereo unspecified) | inconclusive: 3.98 µM [inhibitor, single point]
27 | COc1ccc(CNC(=O)CSC(=S)N2CCCC2)cc1 | inconclusive: 3.16 µM [inhibitor, partial curve, poor fit]
28 | COc1cc(NC(=O)Cn2c(=O)n(Cc3ccco3)c(=O)c3oc4ccccc4c32)cc(OC)c1 | inactive
29 | CCOc1ccc(C(=O)N2CCC(c3noc(-c4ccc(S(=O)(=O)N5CCCC5)cc4)n3)CC2)cc1 | inactive
30 | COc1ccc(S(=O)(=O)n2[nH]c(=O)c(CCO)c2C)c([N+](=O)[O-])c1 | inactive
31 | COc1ccc(-c2nnn(CC(=O)N(CC(=O)NC3CCCC3)Cc3cccs3)n2)cc1OC | inconclusive: 35.5 µM [inhibitor, single point]
32 | Cc1ccc(/C=C2/NC(=O)N(Cc3ccccc3F)C2=O)s1 | inconclusive: 3.55 µM [inhibitor, full curve, poor fit]
33 | O=C(CN1C(=O)COc2ccc(S(=O)(=O)Nc3ccccc3)cc21)Nc1cccc(Cl)c1 | inactive
34 | COc1ccc(NC(=S)NN2C(C)CCCC2C)cc1 (stereo unspecified) | inconclusive: 35.5 µM [inhibitor, single point]
35 | COc1ccc(Cl)cc1NC(=O)CN(C)C(=O)c1ccc(C)s1 | inconclusive: 3.55 µM [inhibitor, single point]
36 | CSc1nc2ccc(NC(=O)c3ccc(=O)[nH]c3)cc2s1 | inconclusive: 1.58 µM [inhibitor, partial curve, poor fit]
37 | Cc1ccc(S(=O)(=O)N2CN(CC3CCCO3)c3nc4ccccc4nc32)cc1 (stereo unspecified) | inconclusive: 22.4 µM [inhibitor, single point]
38 | O=C(NCC1CCCO1)c1ccccc1NS(=O)(=O)c1cccs1 (stereo unspecified) | inconclusive: 35.5 µM [inhibitor, single point]
39 | CC(/C=N/NC(=O)Cc1cccs1)=C\c1ccccc1 | inactive
40 | CN(C)S(=O)(=O)c1ccc(C(=O)Oc2cc(=O)[nH]c3ccccc23)cc1 | inactive
41 | Cc1ccccc1CSc1ncc(CO)n1Cc1ccc(F)cc1 | inactive
42 | CN(CC(=O)Nc1ccccc1Cl)C(=O)C1CCN(C(=O)c2ccc(Cl)cc2)CC1 | inconclusive: 3.16 µM [inhibitor, single point]
43 | Cc1ccc(S(=O)(=O)Nc2cc(Cl)c(O)c3ncccc23)cc1 | inconclusive: 11.2 µM [inhibitor, single point]
44 | COc1cc(C(C(=O)NC2CCCCC2)N(C(=O)c2snc(C(N)=O)c2N)c2ccc(C)cc2)ccc1O (stereo unspecified) | inconclusive: 35.5 µM [inhibitor, single point]

Row | Compound | Potency
45 | CCN(CC)c1ccc(/C=C/C(=O)c2ccc(Br)cc2)cc1 | active: 25.1 µM
46 | O=C(Nc1ncccc1O)c1ccc(C(=O)c2ccccc2)cc1 | inconclusive: 25.1 µM [inhibitor, single point]
47 | CCOC(=O)c1sc(N2N=C(C)C(N=Nc3cccc(C)c3)C2=O)nc1C (stereo unspecified) | inconclusive: 25.1 µM [inhibitor, single point]
48 | COc1ccc(-c2cn3nc(SCC(=O)Nc4ccc(C)c(Cl)c4)ccc3n2)cc1 | inactive
49 | CCCOc1ccc(C(=O)Nc2nc(C)c(Cc3ccc4c(c3)OCO4)s2)cc1 | inactive
50 | COc1ccc2nc(/C(C#N)=C\c3ccc(Oc4ccc([N+](=O)[O-])cn4)cc3)[nH]c2c1 | inconclusive: 35.5 µM [inhibitor, single point]
51 | Cc1ccc(-c2cn(-c3ccccc3F)c(=S)[nH]2)cc1 | inactive
52 | O=C(NC(=O)c1ccccc1O)c1ccc(C(F)(F)F)cc1 | inactive
53 | CCOC(=O)Cn1c(=O)oc2cc(S(=O)(=O)N3CCN(c4ccc(C(C)=O)cc4)CC3)ccc21 | inconclusive: 35.5 µM [inhibitor, single point]
54 | S=c1[nH]nc(-c2ccccn2)n1/N=C/c1cccc(Cl)c1 | inconclusive: 3.16 µM [inhibitor, partial curve, poor fit]
55 | O=C(COC(=O)c1cccnc1Cl)Nc1ccccc1OC(F)F | active: 10 µM
56 | CCc1ccc(-n2cccc2/C=C2/C(=N)N3C(=NC2=O)SN=C3S(C)(=O)=O)cc1 | inactive
57 | CC(C)N(C(=O)[C@H]1C[C@H](CC(=O)NCC23CC4CC(CC(C4)C2)C3)C(=O)N2CCc3c([nH]c4cc(CCC(=O)N(C)C)ccc34)[C@]12C)C(C)C | inconclusive: 35.5 µM [inhibitor, single point]
58 | O=C(COC(=O)CC1CC2CCC1C2)NC(=O)NC1CCCC1 (stereo unspecified) | inconclusive: 2.82 µM [inhibitor, partial curve, poor fit]
59 | Cc1ccc(CNCc2c(C(=O)O)n(Cc3ccc(C)cc3)c3cc(C)ccc23)cc1 | inconclusive: 17.8 µM [inhibitor, single point]
60 | O=C(Nc1nnc(-c2ccc3c(c2)CCCC3)o1)c1c(F)cccc1F | active: 25.1 µM
61 | N#C/C(=C\c1ccc(Sc2ccccc2)o1)c1nc2ccccc2[nH]1 | inconclusive: 28.2 µM [inhibitor, single point]
62 | CC(C)c1ccc(NC(=O)CSC(C)c2nc3ccccc3c(=O)[nH]2)cc1 (stereo unspecified) | inactive
63 | CCc1ccc(-c2cc(C(=O)N3N=C(C(F)F)CC3(O)C(F)F)c3ccccc3n2)cc1 (stereo unspecified) | inconclusive: 22.4 µM [inhibitor, single point]
64 | Cc1ccc(S(=O)(=O)N(C)C)cc1NC(=S)NC(C)CCCC(C)C (stereo unspecified) | inconclusive: 2.24 µM [inhibitor, full curve, poor fit]
65 | COc1ccc(-c2cc3ncc(-c4ccccc4)c(N)n3n2)cc1 | inconclusive: 35.5 µM [inhibitor, single point]
66 | CCOC(=O)C1(c2ccccc2)SC(C(=O)OCC)(c2ccccc2)S1 (stereo unspecified) | inactive

An excerpt of these results, in CSV form.
Row,Compound,Potency
21,S=C(CSc1ccccc1)Nc1cccc2ccccc12,"inconclusive: 5.62 µM [inhibitor, single point]"
22,CCOC(=O)c1c(NC(=O)C2COc3ccccc3O2)sc2c1CCN(Cc1ccccc1)C2 (stereo unspecified),inactive
23,COCCNc1nc(-n2nc(C)cc2C)nc2sc3c(c12)CCCC3,"inconclusive: 3.16 µM [inhibitor, partial curve, poor fit]"
24,N#CC1=C(N)C(C#N)(C#N)[C@H](c2cccnc2)[C@H]2CN(C(=O)OCc3ccccc3)CC=C12,"inconclusive: 17.8 µM [inhibitor, single point]"
25,CCOc1ccc(NC(=O)c2cc(=O)c3ccc(C)c(C)c3o2)cc1,"inconclusive: 15.8 µM [inhibitor, single point]"
26,Cc1ccc(N2CC(O)Cn3c2nc2c3c(=O)[nH]c(=O)n2C)cc1 (stereo unspecified),"inconclusive: 3.98 µM [inhibitor, single point]"
27,COc1ccc(CNC(=O)CSC(=S)N2CCCC2)cc1,"inconclusive: 3.16 µM [inhibitor, partial curve, poor fit]"
28,COc1cc(NC(=O)Cn2c(=O)n(Cc3ccco3)c(=O)c3oc4ccccc4c32)cc(OC)c1,inactive
29,CCOc1ccc(C(=O)N2CCC(c3noc(-c4ccc(S(=O)(=O)N5CCCC5)cc4)n3)CC2)cc1,inactive
30,COc1ccc(S(=O)(=O)n2[nH]c(=O)c(CCO)c2C)c([N+](=O)[O-])c1,inactive
31,COc1ccc(-c2nnn(CC(=O)N(CC(=O)NC3CCCC3)Cc3cccs3)n2)cc1OC,"inconclusive: 35.5 µM [inhibitor, single point]"
32,Cc1ccc(/C=C2/NC(=O)N(Cc3ccccc3F)C2=O)s1,"inconclusive: 3.55 µM [inhibitor, full curve, poor fit]"
33,O=C(CN1C(=O)COc2ccc(S(=O)(=O)Nc3ccccc3)cc21)Nc1cccc(Cl)c1,inactive
34,COc1ccc(NC(=S)NN2C(C)CCCC2C)cc1 (stereo unspecified),"inconclusive: 35.5 µM [inhibitor, single point]"
35,COc1ccc(Cl)cc1NC(=O)CN(C)C(=O)c1ccc(C)s1,"inconclusive: 3.55 µM [inhibitor, single point]"
36,CSc1nc2ccc(NC(=O)c3ccc(=O)[nH]c3)cc2s1,"inconclusive: 1.58 µM [inhibitor, partial curve, poor fit]"
37,Cc1ccc(S(=O)(=O)N2CN(CC3CCCO3)c3nc4ccccc4nc32)cc1 (stereo unspecified),"inconclusive: 22.4 µM [inhibitor, single point]"
